Data from the supplement of paper PMC10331698.
± gives the standard deviation of the averaged measurements. Most values lie at the level of the controls, where differences are scatter.

What was measured:
Experiment in all cases: level (log10 ratio to DMSO vehicle control); higher = higher biomarker level / cell amount than vehicle control
[1] = compound: CN(C(=O)C(F)(F)C(F)(F)C(F)(F)F)[Si](C)(C)C [N-Methyl-N-trimethylsilylheptafluorobutyramide]; conditions: 2200 nM; in DMSO
Procedure: (§1)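 BioMAP Diversity Plus panel of 12 human primary cell co-culture systems (3C, 4H, LPS, SAg, BT, BF4T, BE3C, CASM3C, HDF3CGF, KF3CT, MyoF, Mphg). Compounds were added 1 h before stimulation and left for 24 h (MyoF 48 h; BT 72 h for soluble read-outs or 6 d for IgG). Biomarkers were read by ELISA, cytotoxicity by SRB, PBMC viability and proliferation by Alamar Blue. Each well value was divided by the mean of 8 DMSO control wells on the same plate and log10 transformed; duplicate blinded samples were tested at 4 concentrations.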

Perfluoropentanoic acid = compound: O=C(O)C(F)(F)C(F)(F)C(F)(F)C(F)(F)F [Perfluoropentanoic acid]; conditions: in DMSO
Procedure: as §1

[2] = compound: OCCC(F)(F)C(F)(F)C(F)(F)C(F)(F)C(F)(F)C(F)(F)F [6:2 Fluorotelomer alcohol]; conditions: 2200 nM; in DMSO
Procedure: as §1

1H,1H-Heptafluorobutanol = compound: OCC(F)(F)C(F)(F)C(F)(F)F [1H,1H-Heptafluorobutanol]; conditions: 2200 nM; in DMSO
Procedure: as §1

[3] = compound: FC(F)(F)C(F)(F)C(F)(F)C(F)(F)C(F)(F)C(F)(F)CC1CO1 [3-(Perfluorohexyl)-1,2-epoxypropane]; conditions: 2200 nM; in DMSO
Procedure: as §1

[4] = compound: O=C(O)C(F)(F)C(F)(F)C(F)(F)OC(F)(F)F [Perfluoro(4-methoxybutanoic) acid]; conditions: 2200 nM; in DMSO
Procedure: as §1

Heptafluorobutyramide = compound: NC(=O)C(F)(F)C(F)(F)C(F)(F)F [Heptafluorobutyramide]; conditions: 2200 nM; in DMSO
Procedure: as §1

1-(Perfluorohexyl)octane = compound: CCCCCCCCC(F)(F)C(F)(F)C(F)(F)C(F)(F)C(F)(F)C(F)(F)F [1-(Perfluorohexyl)octane]; conditions: in DMSO
Procedure: as §1

Perfluoroheptanoic acid = compound: O=C(O)C(F)(F)C(F)(F)C(F)(F)C(F)(F)C(F)(F)C(F)(F)F [Perfluoroheptanoic acid]; conditions: in DMSO
Procedure: as §1

[5] = compound: CC(C)(C)C(=O)CC(=O)C(F)(F)C(F)(F)C(F)(F)F [(Heptafluorobutanoyl)pivaloylmethane]; conditions: 2200 nM; in DMSO
Procedure: as §1

[6] = compound: NCC(F)(F)C(F)(F)C(F)(F)C(F)(F)C(F)(F)C(F)(F)C(F)(F)F [1H,1H-Perfluorooctylamine]; conditions: 2200 nM; in DMSO
Procedure: as §1

[7] = compound: Cc1ccc(S(=O)(=O)OCC(F)(F)C(F)(F)C(F)(F)C(F)(F)C(F)(F)C(F)F)cc1 [1H,1H,7H-Perfluoroheptyl 4-methylbenzenesulfonate]; conditions: 2200 nM; in DMSO
Procedure: as §1

[8] = compound: CCN(CCO)S(=O)(=O)C(F)(F)C(F)(F)C(F)(F)C(F)(F)C(F)(F)C(F)(F)C(F)(F)C(F)(F)F [N-Ethyl-N-(2-hydroxyethyl)perfluorooctanesulfonamide]; conditions: in DMSO
Procedure: as §1

[9] = compound: O=S(=O)(O)CCC(F)(F)C(F)(F)C(F)(F)C(F)(F)C(F)(F)C(F)(F)C(F)(F)C(F)(F)F [8:2 Fluorotelomer sulfonic acid]; conditions: in DMSO
Procedure: as §1

Octafluoroadipic acid = compound: O=C(O)C(F)(F)C(F)(F)C(F)(F)C(F)(F)C(=O)O [Octafluoroadipic acid]; conditions: 2200 nM; in DMSO
Procedure: as §1

[10] = compound: O=C(O)C(F)(F)C(F)(F)C(F)(F)C(F)(F)C(F)(F)C(F)(F)C(F)(F)C(F)(F)C(F)(F)C(F)F [11-H-Perfluoroundecanoic acid]; conditions: 2200 nM; in DMSO
Procedure: as §1

Test System	level (log10) [1]	level (log10) (Perfluoropentanoic acid; 2200 nM)	level (log10) (Perfluoropentanoic acid; 6700 nM)	level (log10) (Perfluoropentanoic acid; 20000 nM)	level (log10) (Perfluoropentanoic acid; 60000 nM)	level (log10) [2]	level (log10) (1H,1H-Heptafluorobutanol)	level (log10) [3]	level (log10) [4]	level (log10) (Heptafluorobutyramide)	level (log10) (1-(Perfluorohexyl)octane; 740 nM)	level (log10) (1-(Perfluorohexyl)octane; 2200 nM)	level (log10) (Perfluoroheptanoic acid; 2200 nM)	level (log10) (Perfluoroheptanoic acid; 6700 nM)	level (log10) (Perfluoroheptanoic acid; 20000 nM)	level (log10) (Perfluoroheptanoic acid; 60000 nM)	level (log10) [5]	level (log10) [6]	level (log10) [7]	level (log10) ([8]; 2200 nM)	level (log10) ([8]; 6700 nM)	level (log10) ([8]; 20000 nM)	level (log10) ([9]; 2200 nM)	level (log10) ([9]; 6700 nM)	level (log10) ([9]; 20000 nM)	level (log10) ([9]; 60000 nM)	level (log10) (Octafluoroadipic acid)	level (log10) [10]
MyoF:MMP-1	-0.028 ± 0.017	0.0305 ± 0.076	-0.009 ± 0.02	-0.0215 ± 0.011	0.009 ± 0.071	0.0255 ± 0.091	0.0195 ± 0.063	0.007 ± 0.067	0.009 ± 0.044	0.011 ± 0.021	-0.0035 ± 0.029	-0.0105 ± 0.012	0.008 ± 0.05	-0.0175 ± 0.0064	-0.0245 ± 0.011	0.021 ± 0.061	0.0275 ± 0.1	0.021 ± 0.023	-0.0125 ± 0.015	0.0075 ± 0.016	0.069 ± 0.021	0.426 ± 0.052	-0.004 ± 0.064	-0.0245 ± 0.043	-0.0365 ± 0.028	0.0175 ± 0.005	-0.0015 ± 0.08	-0.0065 ± 0.1
MyoF:CXCL8/IL-8	0.002 ± 0.0099	0.012 ± 0.042	-0.008 ± 0.02	0.01 ± 0.0071	0.024 ± 0.014	0.002 ± 0.027	-0.007 ± 0.034	-0.0075 ± 0.013	0.0155 ± 0.049	0.012 ± 0.042	0.0145 ± 0.021	0.0145 ± 0.016	0.01 ± 0.023	0.002 ± 0.0042	0.0205 ± 0.005	0.0175 ± 0.035	0.0325 ± 0.066	0.012 ± 0.013	0.0145 ± 0.03	-0.028 ± 0.0028	-0.193 ± 0.011	-0.12 ± 0.022	-0.05 ± 0.011	-0.0085 ± 0.03	-0.0885 ± 0.046	-0.157 ± 0.016	-0.0095 ± 0.005	0.0015 ± 0.0021
4H:SRB	0.0195 ± 0.022	-0.016 ± 0.0028	-0.0125 ± 0.00071	-0.0065 ± 0.016	-0.0025 ± 0.021	-0.0125 ± 0.005	0.0045 ± 0.025	0.0045 ± 0.0021	-0.008 ± 0.0014	-0.0155 ± 0.0064	0.0325 ± 0.015	0.01 ± 0.034	-0.009 ± 0.0099	-0.0035 ± 0.005	0.0135 ± 0.026	-0.024 ± 0.021	0.003 ± 0.011	0.004 ± 0.014	0.0135 ± 0.036	-0.028 ± 0.011	-0.016 ± 0.0057	-0.0605 ± 0.029	-0.0125 ± 0.012	-0.012 ± 0.0014	-0.0135 ± 0.012	-0.018 ± 0.033	-0.0195 ± 0.005	0.02 ± 0.021
CASM3C:CCL2/MCP-1	0.008 ± 0.021	-0.0055 ± 0.029	-0.0085 ± 0.005	-0.0125 ± 0.019	-0.0015 ± 0.015	0.029 ± 0.058	0.017 ± 0.027	0.023 ± 0.061	0.0155 ± 0.029	0.0195 ± 0.042	0.0015 ± 0.016	0.001 ± 0.0042	0.019 ± 0.033	-0.0115 ± 0.015	-0.013 ± 0.011	0.032 ± 0.044	0.0095 ± 0.03	0.015 ± 0.075	0.004 ± 0.016	0.0155 ± 0.039	0.003 ± 0.017	-0.017 ± 0.0057	0.0175 ± 0.036	-0.0095 ± 0.00071	-0.003 ± 0.0057	0.016 ± 0.04	0.018 ± 0.024	0.012 ± 0.0028
BF4T:CD90	-0.0115 ± 0.015	-0.0015 ± 0.0021	-0.02 ± 0.0085	-0.0105 ± 0.005	-0.0025 ± 0.025	-0.004 ± 0.023	0.0055 ± 0.0035	0.0125 ± 0.019	0.0075 ± 0.019	0.005 ± 0.023	-0.0185 ± 0.00071	-0.0025 ± 0.021	0.006 ± 0.025	-0.01 ± 0.0042	-0.001 ± 0.0014	-0.0005 ± 0.0021	0.0025 ± 0.0035	0.0185 ± 0.023	-0.008 ± 0.013	-0.009 ± 0.0057	-0.013 ± 0.0099	-0.0145 ± 0.005	-0.0045 ± 0.016	-0.008 ± 0.0028	-0.018 ± 0.0014	-0.0355 ± 0.0092	0.003 ± 0.014	-0.068 ± 0.013
